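Malaria parasite (P. falciparum) lines kept in red blood cells; parasite DNA is measured by SYBR Green fluorescence after lysis, 72 h after compound addition. Each compound was titrated across a series from about 0.000037 to 29 µM. The number is the fitted AC50, the concentration giving a half-maximal change in signal; a lower value means higher potency, whether the curve shows a decrease or an increase. Calls follow the curve class and fit quality: every row here is inconclusive, covering signal-raising curves and weak, poorly fitted, partial or highest-dose-only inhibition curves.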

Values are in µM. Every entry below has the call inconclusive. These entries are mostly ones the record files as inconclusive; other results of the assay are not listed here. Potencies fitted to partial, single-point or poorly fitting curves are rough.

Result for O=C(O)[C@@H]1[C@@H]2C[C@H]3c4[nH]c5ccccc5c4CCN3C[C@@H]2CC[C@@H]1O [CP315] was potency 4.548 µM (inhibitor, partial curve). O=C(O)[C@@H]1[C@@H]2C[C@H]3c4[nH]c5ccccc5c4CCN3C[C@@H]2CC[C@@H]1O [PAD] gave potency 8.912 µM (inhibitor, single point). Result for O=C(O)[C@@H]1[C@@H]2C[C@H]3c4[nH]c5ccccc5c4CCN3C[C@@H]2CC[C@@H]1O [TAB113] was potency 3.981 µM (inhibitor, partial curve). For O=C(O)[C@@H]1[C@@H]2C[C@H]3c4[nH]c5ccccc5c4CCN3C[C@@H]2CC[C@@H]1O [DIV14] the result was potency 5.103 µM (inhibitor, single point). With O=C(O)[C@@H]1[C@@H]2C[C@H]3c4[nH]c5ccccc5c4CCN3C[C@@H]2CC[C@@H]1O [CP325] the assay gave potency 0.2279 µM (inhibitor, full curve, poor fit).

With O=C(O)[C@@H]1[C@@H]2C[C@H]3c4[nH]c5ccccc5c4CCN3C[C@@H]2CC[C@@H]1O [GB4] the assay gave potency 8.087 µM (inhibitor, single point). O=C(O)[C@@H]1[C@@H]2C[C@H]3c4[nH]c5ccccc5c4CCN3C[C@@H]2CC[C@@H]1O [CP286] gave potency 7.08 µM (inhibitor, single point). For O=C(O)[C@@H]1[C@@H]2C[C@H]3c4[nH]c5ccccc5c4CCN3C[C@@H]2CC[C@@H]1O [CP329] the result was potency 5.726 µM (inhibitor, single point). O=C(O)[C@@H]1[C@@H]2C[C@H]3c4[nH]c5ccccc5c4CCN3C[C@@H]2CC[C@@H]1O [ECU] read potency 5.623 µM (inhibitor, single point). O=C(O)[C@@H]1[C@@H]2C[C@H]3c4[nH]c5ccccc5c4CCN3C[C@@H]2CC[C@@H]1O [CP291] read potency 8.087 µM (inhibitor, single point).

Result for O=C(O)[C@@H]1[C@@H]2C[C@H]3c4[nH]c5ccccc5c4CCN3C[C@@H]2CC[C@@H]1O [CP269] was potency 5.103 µM (inhibitor, single point). Result for O=C(O)[C@@H]1[C@@H]2C[C@H]3c4[nH]c5ccccc5c4CCN3C[C@@H]2CC[C@@H]1O [ICS] was potency 3.548 µM (inhibitor, single point).

Once more, the final 2:

{"structure": "O=C(O)[C@@H]1[C@@H]2C[C@H]3c4[nH]c5ccccc5c4CCN3C[C@@H]2CC[C@@H]1O", "condition": "CP269", "potency (µM)": "5.103", "curve as filed": "inhibitor, single point"}
{"structure": "O=C(O)[C@@H]1[C@@H]2C[C@H]3c4[nH]c5ccccc5c4CCN3C[C@@H]2CC[C@@H]1O", "condition": "ICS", "potency (µM)": "3.548", "curve as filed": "inhibitor, single point"}

From PubChem BioAssay record AID504749 (NCATS, 2011).